Experimental data from PubChem BioAssay AID1347076 (National Center for Advancing Translational Sciences (NCATS), 2019).
Out of some 400,000 compounds screened, about 13,000 (3.2%) were called active. The shares of active, inactive and inconclusive entries below differ from those in the screen. Calls come from the whole dose curve; as a rule, active = well fitted cell-killing curve with a large enough effect; inconclusive = small, poorly fitted or top-dose-only effect, or effect the other way; inactive = flat fitted curve, though single readings scatter. Potencies beside an inconclusive call are fits to weak or partial responses and may not hold up.
% is set by controls: 0 for no effect and ±100 for the full control effect; potency is the fitted concentration of half-maximal effect.

Assay: qHTS assay for MDR1-selective chemotherapeutics: Primary screen using the drug-selected MDR subline cells KB-V1; note: nearly all actives have a fitted effect of over 60% in size
Settings: KB-V1 MDR cells viability, CellTiter-Glo, 72 h; activity change, negative = cytotoxicity: at 46.1 µM (top of the series)
Method in brief: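 Luminescent ATP read-out (CellTiter-Glo, 10 min) measures survival of drug-selected KB-V1 MDR cells after 72 h, 37 degrees C compound exposure. Medium: phenol-red-free DMEM, 10% FBS. Values from fitted concentration-response curves.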
For `CCC(=O)N1CCN(c2nc(-c3ccccc3)c3c(c2C#N)CCCC3)CC1`, the Potency was inconclusive: 10.3 µM [cytotoxic, partial curve]. With `O=c1c2c(nc3c(-c4ccccc4)c[nH]n13)CCCC2` the Potency was inconclusive: 32.6 µM [cytotoxic, single point]. For `CCOc1ccc(-n2c(SCC)nc3c(c2=O)SCC3)cc1`, the “activity change, negative = cytotoxicity” value was inactive: 6.29%. In the case of `Cn1c(SCC(=O)Nc2ccc(C(N)=O)cc2)nnc1-c1cccs1`, the Potency is reported as inconclusive: 18.4 µM [rising, partial curve, poor fit]. For `CCOc1ccc(/C=C/C2=Cc3c(sc(NC(=O)CSc4n[nH]c(N)n4)c3C#N)C(C)(C)C2)cc1`, the Potency was inconclusive: 29.1 µM [cytotoxic, single point]. In the case of `O=C(Cn1cc(S(=O)(=O)c2ccccc2)c(=O)c2cc(Cl)ccc21)Nc1ccc2c(c1)OCO2`, the Potency is reported as inconclusive: 10.3 µM [rising, partial curve, poor fit]. In the case of `COc1ccc(NC(=O)c2c(Cl)cnn2C)c(C)c1`, the “activity change, negative = cytotoxicity” value is reported as inactive: 2.87%. In the case of `O=C(N/N=C/C(Cl)=C/c1ccccc1)c1ccncc1`, the Potency is reported as inconclusive: 29.1 µM [rising, single point]. In the case of `COc1cc(C(=O)Nc2cccc(S(=O)(=O)N3CCCC3)c2)cc(OC)c1C`, the Potency is reported as active: 23.1 µM. With `COc1cc(C)c(C2NC(=O)c3ccccc3N2)cc1C` (stereo unspecified) the Potency was inconclusive: 1.46 µM [cytotoxic, partial curve, poor fit]. With `CCOC(=O)/C=C1\CN(Cc2ccc(OC)cc2)S(=O)(=O)c2ccc(C(F)(F)F)cc21` the Potency was inconclusive: 16.4 µM [cytotoxic, single point]. In the case of `CC(C)OC(=O)Nc1ccc(Oc2c(F)c(F)c(F)c(F)c2F)cc1`, the “activity change, negative = cytotoxicity” value is reported as inactive: 0.364%. For `CCC(C)(C)n1nnnc1CN(Cc1ccco1)Cc1cc2cc3c(cc2[nH]c1=O)OCO3`, the Potency was inconclusive: 4.11 µM [cytotoxic, full curve]. In the case of `CNC[C@H](CC1CCCCC1)NC[C@H](CO)NCC1(c2ccccc2)CC1`, the Potency is reported as inconclusive: 20.6 µM [rising, single point]. With `Cc1cc(C)c2cc(C#N)c(NCCCNC(=O)CCC(=O)O)nc2c1` the Potency was inconclusive: 0.58 µM [rising, full curve, poor fit]. For `COc1ccc(OC)c(/C=C2\Oc3cc(OCC(=O)N4CCC(C(=O)O)CC4)ccc3C2=O)c1`, the “activity change, negative = cytotoxicity” value was inactive: 7.57%. In the case of `FC(F)C(F)(F)Oc1cccc(Nc2nccn3c(-c4ccc5ccccc5c4)cnc23)c1`, the Potency is reported as active: 10.3 µM. In the case of `CC1CCCN(C(=O)c2ccc3nc[nH]c3c2)C1` (stereo unspecified), the “activity change, negative = cytotoxicity” value is reported as inactive: 6.48%. In the case of `Cc1cc2c(=O)n(C)c(SCC(=O)NC3CCCC3)nc2s1`, the Potency is reported as inconclusive: 5.8 µM [cytotoxic, partial curve]. In the case of `Clc1cccc(N/N=C/c2ccncc2)c1`, the Potency is reported as inconclusive: 18.4 µM [cytotoxic, single point]. With `COC(=O)c1[nH]c2ccccc2c1NC(=O)CNC1CCCCC1` the Potency was active: 18.4 µM. With `COc1cccc(C(C(=O)NCc2ccccc2)N(C(=O)c2csnn2)C2CC2)c1` (stereo unspecified) the “activity change, negative = cytotoxicity” value was inactive: -21.2%. In the case of `CC(=O)c1ccc(N2CCN(C(=O)c3nn(Cc4ccccc4)c(=O)c4ccccc34)CC2)cc1`, the Potency is reported as inconclusive: 3.26 µM [cytotoxic, full curve, poor fit]. With `Cc1cc(S(=O)(=O)NCC(c2ccccc2)c2ccccc2)ccc1-n1cnnn1` the Potency was active: 18.4 µM. With `Cc1cc(NCCCn2ccnc2)n2nc(C)c(-c3ccccc3)c2n1` the Potency was inconclusive: 4.11 µM [cytotoxic, partial curve, poor fit]. For `Cc1nnc(SCC(=O)NC(=O)Nc2ccc3c(c2)OCCO3)s1`, the “activity change, negative = cytotoxicity” value was inactive: -3.72%. With `COCCNC(=O)C1CCCN(C(=O)c2nc3ccccc3s2)CC1` (stereo unspecified) the “activity change, negative = cytotoxicity” value was inactive: -2.84%. For `Cc1cccc(C2CC(=O)Nc3cc4c(cc32)OCO4)c1` (stereo unspecified), the “activity change, negative = cytotoxicity” value was inactive: -25.3%. With `CCc1cc2c(SCC(=O)Nc3ccc(Cl)cn3)ncnc2s1` the Potency was inconclusive: 13 µM [cytotoxic, partial curve]. With `Cc1nnc(N2CCOCC2)c2nn(-c3ccccc3)c(C)c12` the Potency was inconclusive: 16.4 µM [cytotoxic, single point]. In the case of `O=C(c1cccc(F)c1)N1CCC(O)(c2cccnc2)CC1`, the activity change, negative = cytotoxicity is reported as inconclusive: 33%. With `CCc1nc2nc(C)cc(Nc3cccc(C)c3C)n2n1` the “activity change, negative = cytotoxicity” value was inactive: -2.57%. With `COc1ccc(-c2c(C(C)=O)c(C)nc3sc4c(=N)n(N)cnc4c23)cc1` the Potency was active: 18.4 µM. In the case of `COc1ccccc1OCC(=O)Nc1oc(-c2ccccc2)c(-c2ccccc2)c1C#N`, the Potency is reported as inconclusive: 14.6 µM [cytotoxic, partial curve]. For `Cc1cccc(-n2ccnc2SCC(=O)Nc2nnc(C)s2)c1`, the “activity change, negative = cytotoxicity” value was inactive: 1.41%. For `CN(C)Cc1cn(-c2ccccc2)nc1-c1ccccc1`, the “activity change, negative = cytotoxicity” value was inactive: -7.78%. With `CCN1CCN(c2ccc(S(=O)(=O)N3CCCCC3)cc2NC(=O)/C=C/c2ccc([N+](=O)[O-])cc2)CC1` the Potency was inconclusive: 23.1 µM [cytotoxic, single point]. In the case of `NC(=O)NC(=O)COC(=O)c1ccccc1OCc1ccc(F)cc1`, the Potency is reported as inconclusive: 0.231 µM [rising, full curve, poor fit]. With `COC(=O)c1ccc(NC(=O)CN2C(=O)CC(c3ccccc3)Sc3ccccc32)cc1` (stereo unspecified) the Potency was inconclusive: 13 µM [cytotoxic, partial curve]. With `CCOC(NC(=O)c1ccccc1)C(NC(=O)c1ccccc1)OCC` (stereo unspecified) the Potency was inconclusive: 10.3 µM [cytotoxic, single point]. With `CCOc1cc(Cl)c(S(=O)(=O)n2ccnc2)cc1Cl` the Potency was inconclusive: 16.4 µM [rising, partial curve]. In the case of `COc1cccc(/C=N/n2c(COc3ccccc3)n[nH]c2=S)c1O`, the Potency is reported as inconclusive: 20.6 µM [rising, partial curve, poor fit]. With `Cc1ccc(CN2[C@@H](c3ccccc3)COCCS2(=O)=O)cc1` the Potency was inconclusive: 18.4 µM [cytotoxic, single point]. For `COc1ccc(S(=O)(=O)Nc2ccc(N3CCOCC3)nc2)cc1`, the “activity change, negative = cytotoxicity” value was inactive: -14.9%. For `CC(=O)c1c(NCCc2ccccc2)nc(=S)n(-c2ccccc2)c1C`, the Potency was inconclusive: 29.1 µM [rising, single point]. In the case of `Cc1ccc(OCC(=O)Nc2ccc(N3CCN(C(=O)c4ccco4)CC3)cc2)cc1`, the Potency is reported as inconclusive: 20.6 µM [cytotoxic, single point]. For `CCOC(=O)N1CCC(NC(=O)c2ccc3c(c2)sc2nc(-c4ccccc4)cn23)CC1`, the “activity change, negative = cytotoxicity” value was inactive: 0%. With `COc1cccc(CN(C)C(=O)c2cccc(OCc3ccccc3)c2)c1` the Potency was inconclusive: 23.1 µM [cytotoxic, single point]. With `C[C@H]1CN([C@@H](C)CO)C(=O)Cc2cc(NC(=O)Cn3cnnn3)ccc2O[C@H]1CN(C)Cc1ccncc1` the “activity change, negative = cytotoxicity” value was inactive: 0.0002%. In the case of `COc1cc(/C=N\NC(=O)c2cccnc2)ccc1OC(=O)c1ccccc1Cl`, the Potency is reported as inconclusive: 13 µM [rising, partial curve, poor fit]. With `COc1ccccc1C1OC(c2cccc([N+](=O)[O-])c2)=NN1C(C)=O` (stereo unspecified) the “activity change, negative = cytotoxicity” value was inactive: 5.69%. With `CCN(C(=O)Cn1cc(C(F)(F)F)ccc1=O)C1CCS(=O)(=O)C1` (stereo unspecified) the Potency was inconclusive: 3.26 µM [rising, partial curve, poor fit]. For `N#CCOC(=O)c1c2c(nc3ccccc13)CCC2`, the “activity change, negative = cytotoxicity” value was inactive: -7.17%. With `Cn1nc2c3ccccc3n(Cc3ccc(F)cc3)c2nc1=S` the Potency was inconclusive: 3.26 µM [cytotoxic, full curve, poor fit]. For `COc1ccc(C(=O)NC(=S)NNC(=O)c2cccc(C)c2)cc1`, the “activity change, negative = cytotoxicity” value was inactive: -14.7%. In the case of `OC1COC(c2ccccc2)OC1C1OC(c2ccccc2)OCC1O` (stereo unspecified), the Potency is reported as inconclusive: 8.2 µM [rising, partial curve, poor fit]. For `O=C(CCc1ccccc1)NC(NC(=S)Nc1cccc(Cl)c1)C(Cl)(Cl)Cl` (stereo unspecified), the Potency was inconclusive: 13 µM [cytotoxic, partial curve]. With `O=C(COc1ccccc1)NNC(=S)NC(=O)c1ccccc1` the “activity change, negative = cytotoxicity” value was inactive: -15.7%. With `CCOc1ccccc1C(=O)N[C@H](C(=O)OCc1cc([N+](=O)[O-])cc2c1OCOC2)C(C)C` the Potency was active: 5.8 µM. For `O=C(CC(=O)c1ccccc1)Nc1cc(C(F)(F)F)ccc1Cl`, the Potency was inconclusive: 23.1 µM [cytotoxic, single point]. With `O=S(=O)(c1cccc(-c2csc(-c3ccccc3)n2)c1)N1CCOCC1` the “activity change, negative = cytotoxicity” value was inactive: -19.3%. In the case of `Cc1cc(N2CCC(N(C)C3CCCC3)CC2)nc2cc(O)ccc12`, the Potency is reported as inconclusive: 3.66 µM [rising, full curve, poor fit]. In the case of `Cc1ccc(OCc2cc(C(=O)N(C)Cc3nccn3C)no2)cc1C`, the “activity change, negative = cytotoxicity” value is reported as inactive: -7.74%. For `Cc1c(Cl)cccc1NC(=O)CCS(=O)(=O)c1ccc2c(c1)CC(=O)N2C`, the “activity change, negative = cytotoxicity” value was inactive: 4.68%. In the case of `NS(=O)(=O)c1ccc(NC(=O)Nc2ccc3c(c2)OCO3)cc1`, the activity change, negative = cytotoxicity is reported as inconclusive: 4.55%. With `CN1CCN(Cc2cc(COCc3ccccc3)c3cccnc3c2O)CC1` the Potency was inconclusive: 0.731 µM [cytotoxic, full curve, poor fit]. With `COc1ccc(OC)c(CCNC(=O)CS(=O)(=O)Cc2nc(-c3ccccc3C)oc2C)c1` the Potency was active: 6.51 µM. In the case of `O=C(c1ccc(Cl)c(S(=O)(=O)NCc2ccco2)c1)N1CCN(c2ccccc2F)CC1`, the Potency is reported as inconclusive: 20.6 µM [cytotoxic, single point]. In the case of `O=C(COC(=O)c1n[nH]c2ccccc12)Nc1cccc(S(=O)(=O)N2CCOCC2)c1`, the “activity change, negative = cytotoxicity” value is reported as inactive: -2.76%. With `Cc1ccccc1NC(=O)Cn1c(=O)n(Cc2ccc3c(c2)OCO3)c(=O)c2ccccc21` the “activity change, negative = cytotoxicity” value was inactive: -1.94%. In the case of `COc1ccc(S(=O)(=O)Nc2ccc3c(c2)CC(=O)N([C@H](C)CO)C[C@H](C)[C@H](CN(C)C(=O)Nc2ccc4c(c2)OCO4)O3)cc1`, the Potency is reported as inconclusive: 0.0058 µM [rising, full curve, poor fit].
